According to publication PMC12475854:
No constants are given. Whether binding was seen depends on the method and setting. Binding seen in cells or lysates may run through a third protein. Here binding means that the protein was enriched with, or labelled near, the bait; the list need not be complete. For some assays here: A no says only that the protein was not detected with the bait. Sequences can lack the tags named with a protein.

Chains of the proteins cited; added tags and fusions are not shown. Residues count along the entry.
UniProt Q7SIG6: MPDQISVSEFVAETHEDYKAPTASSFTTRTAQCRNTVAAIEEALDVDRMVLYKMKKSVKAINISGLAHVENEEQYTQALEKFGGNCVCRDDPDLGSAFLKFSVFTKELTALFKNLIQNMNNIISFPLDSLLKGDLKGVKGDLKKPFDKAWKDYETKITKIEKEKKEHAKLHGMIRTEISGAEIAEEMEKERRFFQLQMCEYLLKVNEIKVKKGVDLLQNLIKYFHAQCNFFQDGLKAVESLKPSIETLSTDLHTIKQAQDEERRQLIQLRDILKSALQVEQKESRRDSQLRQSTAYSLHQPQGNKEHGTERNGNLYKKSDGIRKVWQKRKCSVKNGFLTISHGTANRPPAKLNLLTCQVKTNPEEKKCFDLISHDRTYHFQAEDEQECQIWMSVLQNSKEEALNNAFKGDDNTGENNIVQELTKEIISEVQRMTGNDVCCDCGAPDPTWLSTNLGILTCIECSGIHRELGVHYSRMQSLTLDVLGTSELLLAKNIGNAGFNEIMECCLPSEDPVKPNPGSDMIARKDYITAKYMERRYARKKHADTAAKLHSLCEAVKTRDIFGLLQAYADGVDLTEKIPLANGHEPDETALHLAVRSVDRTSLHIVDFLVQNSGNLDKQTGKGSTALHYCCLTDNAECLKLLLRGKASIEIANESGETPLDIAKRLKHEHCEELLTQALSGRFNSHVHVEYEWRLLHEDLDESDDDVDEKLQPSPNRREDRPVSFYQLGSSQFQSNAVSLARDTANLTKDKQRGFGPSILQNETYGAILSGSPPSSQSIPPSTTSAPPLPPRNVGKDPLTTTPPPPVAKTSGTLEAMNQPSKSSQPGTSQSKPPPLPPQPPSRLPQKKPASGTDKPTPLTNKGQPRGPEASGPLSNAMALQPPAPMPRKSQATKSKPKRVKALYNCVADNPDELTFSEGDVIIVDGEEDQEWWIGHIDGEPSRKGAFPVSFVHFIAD
UniProt P56818, residues 46-501: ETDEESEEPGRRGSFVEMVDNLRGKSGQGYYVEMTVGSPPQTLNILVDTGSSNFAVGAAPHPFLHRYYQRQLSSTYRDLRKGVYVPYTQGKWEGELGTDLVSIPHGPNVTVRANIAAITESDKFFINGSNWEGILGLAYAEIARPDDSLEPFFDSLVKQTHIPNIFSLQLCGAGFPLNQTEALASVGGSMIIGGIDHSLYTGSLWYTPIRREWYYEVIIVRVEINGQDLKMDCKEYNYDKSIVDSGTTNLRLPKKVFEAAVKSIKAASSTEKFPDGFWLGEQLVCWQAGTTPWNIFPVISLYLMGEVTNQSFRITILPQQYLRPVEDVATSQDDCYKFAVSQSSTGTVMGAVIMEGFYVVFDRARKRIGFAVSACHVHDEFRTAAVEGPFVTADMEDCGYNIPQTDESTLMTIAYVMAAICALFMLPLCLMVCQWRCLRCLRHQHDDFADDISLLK
UniProt Q62421: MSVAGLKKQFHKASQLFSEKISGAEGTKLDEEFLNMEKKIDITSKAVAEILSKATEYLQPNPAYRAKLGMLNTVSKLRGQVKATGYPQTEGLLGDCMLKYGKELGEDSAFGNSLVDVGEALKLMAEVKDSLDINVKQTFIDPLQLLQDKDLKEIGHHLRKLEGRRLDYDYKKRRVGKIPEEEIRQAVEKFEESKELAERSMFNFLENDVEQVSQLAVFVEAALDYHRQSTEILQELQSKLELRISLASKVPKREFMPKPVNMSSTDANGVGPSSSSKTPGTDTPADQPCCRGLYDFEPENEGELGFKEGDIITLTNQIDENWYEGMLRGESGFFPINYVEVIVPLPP
UniProt Q8CHC4: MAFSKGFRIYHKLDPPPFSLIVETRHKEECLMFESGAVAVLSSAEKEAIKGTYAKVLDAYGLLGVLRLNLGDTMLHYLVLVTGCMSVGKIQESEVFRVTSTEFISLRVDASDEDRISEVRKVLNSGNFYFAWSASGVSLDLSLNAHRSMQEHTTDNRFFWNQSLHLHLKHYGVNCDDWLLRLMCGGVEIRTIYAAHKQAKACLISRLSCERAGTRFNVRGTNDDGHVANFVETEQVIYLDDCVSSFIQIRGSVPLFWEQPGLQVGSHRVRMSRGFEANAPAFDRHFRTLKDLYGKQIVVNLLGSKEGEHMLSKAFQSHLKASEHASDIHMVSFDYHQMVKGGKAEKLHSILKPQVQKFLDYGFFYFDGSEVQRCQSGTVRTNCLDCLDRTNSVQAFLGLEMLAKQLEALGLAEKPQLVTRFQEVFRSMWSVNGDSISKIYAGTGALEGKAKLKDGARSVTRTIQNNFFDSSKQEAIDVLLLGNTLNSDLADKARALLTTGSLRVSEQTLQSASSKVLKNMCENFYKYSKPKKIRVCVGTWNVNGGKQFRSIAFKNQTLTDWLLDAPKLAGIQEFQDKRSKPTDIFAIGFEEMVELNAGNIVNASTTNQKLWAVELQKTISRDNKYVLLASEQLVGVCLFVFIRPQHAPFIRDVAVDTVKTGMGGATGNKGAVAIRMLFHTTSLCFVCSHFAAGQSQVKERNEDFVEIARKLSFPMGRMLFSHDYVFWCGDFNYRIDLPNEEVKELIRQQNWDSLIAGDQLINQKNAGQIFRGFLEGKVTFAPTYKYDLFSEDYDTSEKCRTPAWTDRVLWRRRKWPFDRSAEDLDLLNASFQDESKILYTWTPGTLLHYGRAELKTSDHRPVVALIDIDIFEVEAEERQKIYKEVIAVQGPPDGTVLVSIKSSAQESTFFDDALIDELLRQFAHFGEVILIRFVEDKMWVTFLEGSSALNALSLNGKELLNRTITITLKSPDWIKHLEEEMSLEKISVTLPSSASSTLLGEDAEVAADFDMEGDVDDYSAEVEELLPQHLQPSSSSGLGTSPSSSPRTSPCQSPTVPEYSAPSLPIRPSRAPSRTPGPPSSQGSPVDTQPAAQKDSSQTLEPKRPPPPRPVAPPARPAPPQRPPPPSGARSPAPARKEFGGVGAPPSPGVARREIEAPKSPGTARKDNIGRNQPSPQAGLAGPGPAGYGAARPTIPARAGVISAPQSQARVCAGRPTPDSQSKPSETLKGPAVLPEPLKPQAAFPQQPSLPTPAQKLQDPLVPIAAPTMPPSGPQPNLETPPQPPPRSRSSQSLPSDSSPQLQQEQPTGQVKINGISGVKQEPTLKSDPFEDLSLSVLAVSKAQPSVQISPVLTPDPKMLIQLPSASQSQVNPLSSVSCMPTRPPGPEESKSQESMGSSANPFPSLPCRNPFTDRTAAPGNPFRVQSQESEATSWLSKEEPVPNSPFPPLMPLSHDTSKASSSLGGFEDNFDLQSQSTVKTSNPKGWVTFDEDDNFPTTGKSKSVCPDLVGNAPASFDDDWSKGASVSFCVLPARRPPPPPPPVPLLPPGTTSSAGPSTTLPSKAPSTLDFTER
UniProt P01108: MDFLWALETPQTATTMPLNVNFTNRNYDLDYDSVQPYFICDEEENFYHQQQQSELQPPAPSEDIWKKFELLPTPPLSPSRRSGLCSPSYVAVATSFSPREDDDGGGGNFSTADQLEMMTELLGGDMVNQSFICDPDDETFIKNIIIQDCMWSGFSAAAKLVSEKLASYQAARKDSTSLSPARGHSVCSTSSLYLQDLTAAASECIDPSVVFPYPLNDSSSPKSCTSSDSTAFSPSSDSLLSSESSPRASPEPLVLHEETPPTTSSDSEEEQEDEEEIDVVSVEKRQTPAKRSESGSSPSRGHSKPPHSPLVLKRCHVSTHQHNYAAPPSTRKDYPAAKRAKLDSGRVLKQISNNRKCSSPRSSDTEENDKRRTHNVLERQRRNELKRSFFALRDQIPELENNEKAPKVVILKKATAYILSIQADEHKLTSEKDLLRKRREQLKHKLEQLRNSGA

T1: BIN1iso1-TID (human BIN1 isoform 1-TurboID-V5 fusion protein), expressed in mouse brain neurons (human) (UniProt O00499)
T1 sequence: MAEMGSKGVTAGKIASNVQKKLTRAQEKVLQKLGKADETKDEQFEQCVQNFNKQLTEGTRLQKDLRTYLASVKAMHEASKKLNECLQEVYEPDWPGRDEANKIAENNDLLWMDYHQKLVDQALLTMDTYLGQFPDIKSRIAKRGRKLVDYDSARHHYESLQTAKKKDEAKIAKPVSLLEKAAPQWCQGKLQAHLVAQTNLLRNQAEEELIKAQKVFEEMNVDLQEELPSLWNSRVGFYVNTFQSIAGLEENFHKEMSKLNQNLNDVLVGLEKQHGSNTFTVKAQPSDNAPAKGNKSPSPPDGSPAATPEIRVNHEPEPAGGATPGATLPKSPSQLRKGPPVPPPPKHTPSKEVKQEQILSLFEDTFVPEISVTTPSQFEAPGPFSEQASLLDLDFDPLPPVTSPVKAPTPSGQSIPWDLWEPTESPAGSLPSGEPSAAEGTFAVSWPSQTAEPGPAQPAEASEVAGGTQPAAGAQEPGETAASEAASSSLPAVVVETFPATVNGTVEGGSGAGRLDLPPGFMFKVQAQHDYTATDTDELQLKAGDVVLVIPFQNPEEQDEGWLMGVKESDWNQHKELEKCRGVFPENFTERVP

T2: BIN1iso1-TID (human BIN1 isoform 1-TurboID-V5 fusion protein), expressed in N2a cells (human) (UniProt O00499)
T2 sequence: T1 sequence

B1: SYNJ2 (protein, UniProt Q9D2G5 1-1434)
chain: MALSKGLRLLARLDPTGPSSVLLEARGRGDCLLFEAGAVATLAPEEKEVIKGLYSKLTDAYGCLGELRLQSGGVPLSFLVLVTGCMSVGRIPDAEIYKITATELYPLQEEAKEEDRLPTLKKILSSGVFYFAWPNDGACFDLTIRAQKQGDDGSEWGTSFFWNQLLHVPLRQHQVNCHNWLLKVICGVVTIRTVYASHKQAKACLISRISCERAGARFLTRGVNDDGHVSNFVETEQTIYMDDGVSSFVQIRGSVPLFWEQPGLQVGSHHLRLHRGLEANAPAFERHMVLLKEQYGKQVVVNLLGSRGGEEVLNRAFKKLLWASCHAGDTPMINFDFHQFAKGRKLEKLENLLRPQLQLHWEDFGVFAKGENVSPRFQKGTLRMNCLDCLDRTNTVQCFIALEVLHLQLESLGLNSKPIIDRFVESFKAMWSLNGHSLSKVFTGSRALEGKAKVGKLKDGARSMSRTIQSNFFDGVKQEAIKLLLVGDVYNEESTDKGRMLLDNTALLATPRILKAMTERQSEFTNFKRIQIAVGTWNVNGGKQFRSNLLGTAELTDWLLDAPQLSGAVDSQDDGSPADVFAIGFEEMVELSAGNIVNASTTNRKMWGEQLQKAISRSHRYILLTSAQLVGVCLYIFVRPYHVPFIRDVAIDTVKTGMGGKAGNKGAVGIRFQLHSTSFCFVCSHLTAGQSQVKERNEDYREITHKLSFPSGRNIFSHDYVFWCGDFNYRIDLTYEEVFYFVKRQDWKKLMEFDQLQLQKSSGKIFKDFHEGAVNFGPTYKYDVGSAAYDTSDKCRTPAWTDRVLWWRKKHPYDKTAGELNLLDSDLDGDPQIRHTWSPGTLKYYGRAELQASDHRPVLAIVEVEVQEVDVGARERVFQEVSSVQGPLDATVVVNLQSPTLEEKNEFPEDLRTELMQTLGNYGTIILVRINQGQMLVTFADSHSALSVLDVDGMKVKGRAVKIRPKTKDWLEGLREELLRKRDSMAPVSPTANSCLLEENFDFSSLDYESEGDVLEEDEDYLVDGFGQPVVSDSELGGDNSSDTMSSLTPASKSPALAKKKQHPTYKAGLMVKKSASDASISSGTHGQYSILQTAKLLPGAPQQPPKARTGISKPYNVKQIKTTNAQEAEAAIRCLLEASGGVPESAPGAIPLRNQGSSKPEATLGPPALPRRPAPRVPTMKKPTLRRTGKPMLPEENFEPQPVHFTMASQEMNLETPPPITATPIPPVPKPRTLQPGKGVEGRPSSGKPEPDEAPSVTGTVESPPPEAQEAPSLAPKVPPRRKKSAPAAFHLQVLQNNSQVLQGLTCSSSSPPSLKPDTHPLCLQVALGTSSARSPETHGPRVTEPEAASFHGNYPDPFWSLLHHPKLLNNTWLSKSSEPLDVGSRNPERTHTEPAQVNASLAERGLPPDHGGKDLSHWVTASNKDKRTTLGV
B2: DYN1 (protein, UniProt P39053 1-867)
chain: MGNRGMEDLIPLVNRLQDAFSAIGQNADLDLPQIAVVGGQSAGKSSVLENFVGRDFLPRGSGIVTRRPLVLQLVNSTTEYAEFLHCKGKKFTDFEEVRLEIEAETDRVTGTNKGISPVPINLRVYSPHVLNLTLVDLPGMTKVPVGDQPPDIEFQIRDMLMQFVTKENCLILAVSPANSDLANSDALKIAKEVDPQGQRTIGVITKLDLMDEGTDARDVLENKLLPLRRGYIGVVNRSQKDIDGKKDITAALAAERKFFLSHPSYRHLADRMGTPYLQKVLNQQLTNHIRDTLPGLRNKLQSQLLSIEKEVDEYKNFRPDDPARKTKALLQMVQQFAVDFEKRIEGSGDQIDTYELSGGARINRIFHERFPFELVKMEFDEKELRREISYAIKNIHGIRTGLFTPDMAFETIVKKQVKKIREPCLKCVDMVISELISTVRQCTKKLQQYPRLREEMERIVTTHIREREGRTKEQVMLLIDIELAYMNTNHEDFIGFANAQQRSNQMNKKKTSGNQDEILVIRKGWLTINNIGIMKGGSKEYWFVLTAENLSWYKDDEEKEKKYMLSVDNLKLRDVEKGFMSSKHIFALFNTEQRNVYKDYRQLELACETQEEVDSWKASFLRAGVYPERVGDKEKASETEENGSDSFMHSMDPQLERQVETIRNLVDSYMAIVNKTVRDLMPKTIMHLMINNTKEFIFSELLANLYSCGDQNTLMEESAEQAQRRDEMLRMYHALKEALSIIGDINTTTVSTPMPPPVDDSWLQVQSVPAGRRSPTSSPTPQRRAPAVPPARPGSRGPAPGPPPAGSALGGAPPVPSRPGASPDPFGPPPQVPSRPNRAPPGVPSLGAWRLNSPQGKHENRAGKARL
B3: AMPH (protein, UniProt Q7TQF7 1-686)
chain: MADIKTGIFAKNVQKRLNRAQEKVLQKLGKADETKDEQFEEYVQNFKRQEAEGTRLQRELRGYLAAIKGMQEASMKLTESLHEVYEPDWYGREDVKMVGEKCDVLWEDFHQKLVDGSLLTLDTYLGQFPDIKNRIAKRSRKLVDYDSARHHLEALQSSKRKDESRISKAEEEFQKAQKVFEEFNVDLQEELPSLWSSRVGFYVNTFKNVSSLEAKFHKEIAVLCHKLYEVMTKLGDQHADKAFSIQGAPSDSGPLRIAKTPSPPEEPSPLPSPTASPNHTLAPASPAPVRPRSPSQTRKGPPVPPLPKVTPTKELKQENIINFFEDNFVPEINVTTPSQNEVLEVKKEETLLDLDFDPFKPDVAPAGSAAATHSPMSQTLPWDLWTTSTDLVQPASGGSFNDFTQAQDTSLFTMQTDQNMAETEQALPTEPQAEEPPATAAAPTAGLDLGLEMEEPKEEAVIPPATDTGETVETAVPTEGAPVEEAEAEKAALPAGEGGSPEGAKIDGESTELAISESPQPVEPEAGAPQVIPSVVIEPASNHEGEGEHQETATGTEPREAAEDVAAQGSAGEKQEVATEPTPLDSQATLPASAGAVDASLSAGDATQELPPGFLYKVETLHDFEAANSDELNLQRGDVVLVVPSDSEADQDAGWLVGVKESDWLQYRDLATYKGLFPENFTRRLE
B4: RIN3 (protein, UniProt P59729 1-980)
chain: MRRAEAPSSAHPAGPIPDAGKGEGEEDEEKDGTRLGLSTTPRNCIPRRGISVLEKLVKTCPVWLQLGLGQAEAAKILQQEMAGMFLVCRDNNLKQLVLCVHFPSLKGSSAEVLEYPIKEEKAILYLEGSVLVFEDIFRLIAFYCVSRDLLPFTLRLPQAILEASSFLELETISNLGLGFWDSSLNSRGSAEPLRSPAPGTPASSSLRPTTHYANCSCEIELSVGNDRLWFVNPIFIEDCILPADPPPLPTGSYPPRPTPATPDATSPTSKGSPRRPPPPPPLPTVPPTGPARPLAPPVPPAGPLPNSPLTPTSHLAPHAPGPPGHSNQPPMTACESLPRPAVGLGPFGEEEMKPGTTPNPLHQAPPPPLPLKKALPAAPPRRRISERVSLESQNVGTSTDRDHSGISRTASLNLPPQSTVSSLGDRPPRTTEQSQDTEAKASHADSIPVPPGKAKQPPVPPPRKKRVSRQLASTLLSPLESPIQEASSEKQATGASWEGLSPVRQAGMQHLQVQSSSCPQSSPEFKGSQASLSDSLGVPASAADQDSYSTSSAEEELEFSSPNVKKKPSMILDKARHRLSFVSFASVFHAFLSSDRKLYKKVVELAQDKSSYFGSLVQDYKVYSLEMMARQTSSTEMLQEIRTMMTQLKSYLLQSTELKALVEPTLHSEEELEAIVESALYKCVLKPLKEAINSSLLEIHSRDGSLQQLKENQLVVLATTTTDLGVTTSVPEVAVMEKILQKLTSMHKAYSPGKKISILLKTCKLIYDSMALGNPGKPYGADDFLPVLMYVLARSNLTEMLLNVEYMMELMDPALQLGEGSYYLTTTYGALEHIKNYDKITVTRQLSVEVQDSIHRWERRRTLNKARASRSSVQDFICVSYLKPEQQSRTLASRADTAAQALCAQCAEKFEVSQPQDYRLFVLVDGRCFQLADEALPHRIKGYLLRSEPKRDFHFVYRPQDSGKDASSQPCIVVREPNFL

These molecules were tested against T1, BIN1iso1-TID (human BIN1 isoform 1-TurboID-V5 fusion protein), expressed in mouse brain neurons (human) (assay: proximity labelling; BIN1iso1-TID expressed in mouse brain neurons (AAV-PHP.eB, human SYN1 promoter); biotin 0.5 mg/ml in drinking water for 5 days; hippocampus-cortex RIPA lysate, streptavidin magnetic beads, DIA LC-MS/MS; enrichment over Cyto-TID (Welch p<0.05, z-score >1), n = 11 against 9).

binding | Molecule
binds | ASAP2 (from UniProt Q7SIG6 1-958)
no binding | BACE1 (from UniProt P56818 46-501)
binds | SH3G3 (from UniProt Q62421 1-347)
binds | SYNJ1 (from UniProt Q8CHC4 1-1574)

What follows are molecules tested against T2, BIN1iso1-TID (human BIN1 isoform 1-TurboID-V5 fusion protein), expressed in N2a cells (human) (assay: proximity labelling; BIN1iso1-TID (TurboID fusion) stably expressed in N2a cells; 50 μM biotin for 30 min at 37 °C; RIPA lysis, streptavidin magnetic beads, DIA LC-MS/MS; enrichment over Cyto-TID (Welch p<0.05, z-score >1), n = 3).

binding | Molecule
no binding | MYC (from UniProt P01108 1-454)
binds | SYNJ1 (from UniProt Q8CHC4 1-1574)
binds | endogenous mouse BIN1 (from UniProt O08539 1-588)
binds | B1

Biological target: T1, BIN1iso1-TID (human BIN1 isoform 1-TurboID-V5 fusion protein), expressed in mouse brain neurons (human)
Test: proximity labelling; BIN1iso1-TID expressed in mouse brain neurons (AAV-PHP.eB, human SYN1 promoter); biotin 0.5 mg/ml in drinking water for 5 days; hippocampus-cortex RIPA lysate, streptavidin magnetic beads, DIA LC-MS/MS; enrichment over Cyto-TID (Welch p<0.05, z-score >1), n = 11 against 9
Remark: another data set of the same source

binding | Molecule
binds | B2
binds | B3
binds | B4
